This is one part of the list.
Compound: CC1Cc2ccccc2N1C(=O)C1CCCN(C1)C(=O)CCl (mixture of isomers) [TRIM25 ligand 11 (diastereomer mixture)]
Assay: probe-labelled cysteine peptide fold change vs DMSO (competition) (log2 fold change); higher = less target engagement (more negative = stronger competition)
Settings: THP-1, incubation time: 4 h
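Note: competitive chemoproteomic profiling in live THP-1 cells with an iodoacetamide desthiobiotin (IA-DTB) probe, comparing probe-labelled peptide intensities in compound-treated cells against DMSO-treated controls.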

Amino acid sequences for entries named in this document (tags omitted). A change or cut given only in a name is not applied to a line headed by its entry.
UniProt Q9UPU5: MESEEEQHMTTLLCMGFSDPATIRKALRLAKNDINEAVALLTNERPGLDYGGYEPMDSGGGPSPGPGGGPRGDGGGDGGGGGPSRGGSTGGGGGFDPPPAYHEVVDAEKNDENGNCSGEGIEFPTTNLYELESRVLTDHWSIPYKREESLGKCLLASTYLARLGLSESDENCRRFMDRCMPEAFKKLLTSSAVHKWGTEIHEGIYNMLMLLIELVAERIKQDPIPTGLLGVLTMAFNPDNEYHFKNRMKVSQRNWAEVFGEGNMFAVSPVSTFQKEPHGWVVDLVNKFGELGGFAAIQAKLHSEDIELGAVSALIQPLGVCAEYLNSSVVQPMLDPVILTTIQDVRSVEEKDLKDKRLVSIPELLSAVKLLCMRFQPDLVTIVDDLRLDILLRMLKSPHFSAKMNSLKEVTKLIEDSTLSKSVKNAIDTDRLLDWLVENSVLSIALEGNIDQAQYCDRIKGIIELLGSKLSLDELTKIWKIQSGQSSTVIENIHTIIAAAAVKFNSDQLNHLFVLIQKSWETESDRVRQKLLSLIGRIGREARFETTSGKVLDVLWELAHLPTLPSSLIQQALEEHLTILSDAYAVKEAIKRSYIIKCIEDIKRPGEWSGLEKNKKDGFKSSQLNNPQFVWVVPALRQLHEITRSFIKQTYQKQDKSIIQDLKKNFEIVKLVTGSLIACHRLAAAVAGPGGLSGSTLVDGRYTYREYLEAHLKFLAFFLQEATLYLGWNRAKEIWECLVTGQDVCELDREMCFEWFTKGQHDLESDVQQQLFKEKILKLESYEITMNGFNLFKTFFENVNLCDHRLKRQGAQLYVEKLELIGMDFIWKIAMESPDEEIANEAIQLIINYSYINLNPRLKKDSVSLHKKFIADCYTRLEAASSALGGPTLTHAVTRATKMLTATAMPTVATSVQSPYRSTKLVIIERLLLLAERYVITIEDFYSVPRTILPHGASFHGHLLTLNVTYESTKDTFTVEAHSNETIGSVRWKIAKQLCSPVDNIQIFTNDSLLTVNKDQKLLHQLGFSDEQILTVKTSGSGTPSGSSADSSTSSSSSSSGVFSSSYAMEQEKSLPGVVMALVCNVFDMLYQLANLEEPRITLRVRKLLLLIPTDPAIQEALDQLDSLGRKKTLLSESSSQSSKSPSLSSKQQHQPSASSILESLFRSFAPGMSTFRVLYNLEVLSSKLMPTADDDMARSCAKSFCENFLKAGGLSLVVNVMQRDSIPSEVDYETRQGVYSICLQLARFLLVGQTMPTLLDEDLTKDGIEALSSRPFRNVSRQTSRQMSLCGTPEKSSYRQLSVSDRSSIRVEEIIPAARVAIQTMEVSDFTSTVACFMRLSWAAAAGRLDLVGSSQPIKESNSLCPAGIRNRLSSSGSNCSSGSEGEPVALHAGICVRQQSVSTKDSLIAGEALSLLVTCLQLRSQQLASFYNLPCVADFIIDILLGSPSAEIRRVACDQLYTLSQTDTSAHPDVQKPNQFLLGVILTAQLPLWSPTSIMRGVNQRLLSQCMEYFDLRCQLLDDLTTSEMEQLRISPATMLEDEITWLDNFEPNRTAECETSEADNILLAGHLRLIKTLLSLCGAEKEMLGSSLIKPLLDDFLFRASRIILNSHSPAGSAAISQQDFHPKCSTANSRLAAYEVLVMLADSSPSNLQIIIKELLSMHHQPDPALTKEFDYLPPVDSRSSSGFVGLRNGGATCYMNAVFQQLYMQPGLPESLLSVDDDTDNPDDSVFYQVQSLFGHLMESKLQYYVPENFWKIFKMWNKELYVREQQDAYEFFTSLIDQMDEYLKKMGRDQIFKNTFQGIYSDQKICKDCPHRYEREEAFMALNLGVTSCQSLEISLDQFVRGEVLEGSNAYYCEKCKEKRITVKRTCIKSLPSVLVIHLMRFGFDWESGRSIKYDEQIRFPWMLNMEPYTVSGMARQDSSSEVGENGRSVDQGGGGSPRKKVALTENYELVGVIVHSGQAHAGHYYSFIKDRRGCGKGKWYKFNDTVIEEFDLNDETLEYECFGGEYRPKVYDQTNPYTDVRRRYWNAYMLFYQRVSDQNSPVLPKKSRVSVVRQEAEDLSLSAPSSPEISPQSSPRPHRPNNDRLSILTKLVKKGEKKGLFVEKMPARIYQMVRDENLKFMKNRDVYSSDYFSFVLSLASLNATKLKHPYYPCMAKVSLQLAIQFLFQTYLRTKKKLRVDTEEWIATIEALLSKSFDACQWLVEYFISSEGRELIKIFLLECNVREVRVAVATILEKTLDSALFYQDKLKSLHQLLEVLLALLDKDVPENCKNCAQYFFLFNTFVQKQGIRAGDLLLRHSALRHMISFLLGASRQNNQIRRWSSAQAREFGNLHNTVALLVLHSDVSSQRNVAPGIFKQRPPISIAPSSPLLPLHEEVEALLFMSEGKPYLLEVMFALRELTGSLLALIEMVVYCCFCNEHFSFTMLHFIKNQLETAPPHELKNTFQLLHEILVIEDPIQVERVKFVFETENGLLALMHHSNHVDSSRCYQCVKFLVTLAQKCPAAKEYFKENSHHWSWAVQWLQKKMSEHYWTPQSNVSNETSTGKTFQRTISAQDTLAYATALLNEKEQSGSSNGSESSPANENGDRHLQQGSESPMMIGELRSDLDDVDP
UniProt Q9H3U1: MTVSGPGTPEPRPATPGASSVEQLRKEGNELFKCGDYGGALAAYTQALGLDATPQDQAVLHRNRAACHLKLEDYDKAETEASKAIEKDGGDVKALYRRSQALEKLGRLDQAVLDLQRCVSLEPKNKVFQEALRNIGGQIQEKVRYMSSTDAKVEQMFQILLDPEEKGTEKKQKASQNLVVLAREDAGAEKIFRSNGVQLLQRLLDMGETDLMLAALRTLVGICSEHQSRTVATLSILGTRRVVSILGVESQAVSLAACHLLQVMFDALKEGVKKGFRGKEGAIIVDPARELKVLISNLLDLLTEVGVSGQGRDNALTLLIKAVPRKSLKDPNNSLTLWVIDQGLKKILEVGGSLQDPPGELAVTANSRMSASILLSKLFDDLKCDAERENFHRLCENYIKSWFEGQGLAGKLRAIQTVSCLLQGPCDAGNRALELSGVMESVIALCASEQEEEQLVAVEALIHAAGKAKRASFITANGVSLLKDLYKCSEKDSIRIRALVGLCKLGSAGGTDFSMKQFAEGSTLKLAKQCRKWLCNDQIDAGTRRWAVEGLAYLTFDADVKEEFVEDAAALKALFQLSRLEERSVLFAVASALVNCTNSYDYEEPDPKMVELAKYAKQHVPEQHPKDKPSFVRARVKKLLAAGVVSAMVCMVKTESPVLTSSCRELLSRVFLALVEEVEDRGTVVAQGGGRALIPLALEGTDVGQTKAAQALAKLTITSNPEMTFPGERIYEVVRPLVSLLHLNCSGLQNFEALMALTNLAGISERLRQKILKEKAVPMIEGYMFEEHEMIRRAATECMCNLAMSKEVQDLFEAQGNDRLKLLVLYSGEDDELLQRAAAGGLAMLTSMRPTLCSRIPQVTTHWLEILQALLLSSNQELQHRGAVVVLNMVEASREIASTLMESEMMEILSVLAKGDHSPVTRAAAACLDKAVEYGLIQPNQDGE
UniProt O60287: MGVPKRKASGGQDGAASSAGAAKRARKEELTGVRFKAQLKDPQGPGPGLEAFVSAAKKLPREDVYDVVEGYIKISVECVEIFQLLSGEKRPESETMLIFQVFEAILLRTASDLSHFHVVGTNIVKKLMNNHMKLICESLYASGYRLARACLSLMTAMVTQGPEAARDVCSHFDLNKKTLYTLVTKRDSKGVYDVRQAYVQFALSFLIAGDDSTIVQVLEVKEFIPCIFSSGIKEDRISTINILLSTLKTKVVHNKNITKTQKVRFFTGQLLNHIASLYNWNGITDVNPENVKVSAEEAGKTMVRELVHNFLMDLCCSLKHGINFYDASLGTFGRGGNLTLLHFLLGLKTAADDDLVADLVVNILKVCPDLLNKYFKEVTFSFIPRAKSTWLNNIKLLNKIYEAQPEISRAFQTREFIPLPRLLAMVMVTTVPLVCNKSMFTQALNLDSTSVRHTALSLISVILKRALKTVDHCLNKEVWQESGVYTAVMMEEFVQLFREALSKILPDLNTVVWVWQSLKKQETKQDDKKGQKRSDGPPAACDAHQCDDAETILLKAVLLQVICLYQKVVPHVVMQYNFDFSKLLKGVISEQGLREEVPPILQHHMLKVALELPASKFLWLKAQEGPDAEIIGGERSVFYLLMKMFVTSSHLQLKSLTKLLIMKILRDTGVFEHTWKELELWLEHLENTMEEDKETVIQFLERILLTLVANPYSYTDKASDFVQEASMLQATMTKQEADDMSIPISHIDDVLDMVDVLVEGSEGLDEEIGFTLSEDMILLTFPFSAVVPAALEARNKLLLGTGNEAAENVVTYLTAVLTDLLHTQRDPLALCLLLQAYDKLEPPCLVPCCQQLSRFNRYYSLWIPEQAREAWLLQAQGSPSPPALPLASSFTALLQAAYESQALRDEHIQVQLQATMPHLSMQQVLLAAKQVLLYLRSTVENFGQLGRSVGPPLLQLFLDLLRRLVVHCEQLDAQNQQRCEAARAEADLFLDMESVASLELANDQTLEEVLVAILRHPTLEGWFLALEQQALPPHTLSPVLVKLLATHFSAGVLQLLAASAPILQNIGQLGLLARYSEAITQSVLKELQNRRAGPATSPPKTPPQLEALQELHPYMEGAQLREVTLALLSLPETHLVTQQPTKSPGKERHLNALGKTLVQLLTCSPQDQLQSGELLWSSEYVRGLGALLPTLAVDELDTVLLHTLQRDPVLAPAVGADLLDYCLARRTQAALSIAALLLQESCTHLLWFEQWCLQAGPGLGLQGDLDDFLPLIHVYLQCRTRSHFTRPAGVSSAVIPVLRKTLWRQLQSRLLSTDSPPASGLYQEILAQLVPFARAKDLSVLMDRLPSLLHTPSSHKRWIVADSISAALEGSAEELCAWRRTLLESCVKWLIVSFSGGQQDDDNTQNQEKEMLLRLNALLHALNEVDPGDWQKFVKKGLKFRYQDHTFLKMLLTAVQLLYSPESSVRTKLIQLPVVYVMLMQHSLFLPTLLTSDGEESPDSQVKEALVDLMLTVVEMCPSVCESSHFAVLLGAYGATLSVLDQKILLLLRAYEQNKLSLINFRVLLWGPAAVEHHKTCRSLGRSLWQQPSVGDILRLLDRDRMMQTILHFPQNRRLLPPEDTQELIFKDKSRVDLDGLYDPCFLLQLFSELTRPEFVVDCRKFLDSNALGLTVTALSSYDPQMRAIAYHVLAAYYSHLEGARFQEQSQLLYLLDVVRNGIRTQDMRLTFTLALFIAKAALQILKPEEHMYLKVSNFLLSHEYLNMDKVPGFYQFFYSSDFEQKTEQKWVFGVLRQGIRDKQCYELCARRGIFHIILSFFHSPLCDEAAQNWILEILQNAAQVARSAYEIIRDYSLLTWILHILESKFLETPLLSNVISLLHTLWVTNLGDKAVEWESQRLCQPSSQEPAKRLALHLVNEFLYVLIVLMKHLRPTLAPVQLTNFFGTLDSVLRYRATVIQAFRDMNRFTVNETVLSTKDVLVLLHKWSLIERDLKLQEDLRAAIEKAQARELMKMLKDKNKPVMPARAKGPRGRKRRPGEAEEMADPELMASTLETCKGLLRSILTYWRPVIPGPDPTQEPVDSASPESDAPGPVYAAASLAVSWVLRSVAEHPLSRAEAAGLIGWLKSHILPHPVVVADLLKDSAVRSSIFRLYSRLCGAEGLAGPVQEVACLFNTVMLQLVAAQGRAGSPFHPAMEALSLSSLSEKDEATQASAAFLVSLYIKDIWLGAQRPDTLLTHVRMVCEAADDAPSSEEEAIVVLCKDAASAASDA
UniProt Q9Y3C8: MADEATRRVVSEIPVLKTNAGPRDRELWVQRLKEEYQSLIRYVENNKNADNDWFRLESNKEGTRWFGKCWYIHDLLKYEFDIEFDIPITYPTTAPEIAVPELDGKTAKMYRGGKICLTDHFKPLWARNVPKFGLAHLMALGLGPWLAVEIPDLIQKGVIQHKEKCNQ
UniProt Q9BRT2: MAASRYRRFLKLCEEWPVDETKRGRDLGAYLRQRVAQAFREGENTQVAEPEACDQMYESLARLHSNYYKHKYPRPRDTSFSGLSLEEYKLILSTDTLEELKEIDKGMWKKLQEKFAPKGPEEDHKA
UniProt P07919: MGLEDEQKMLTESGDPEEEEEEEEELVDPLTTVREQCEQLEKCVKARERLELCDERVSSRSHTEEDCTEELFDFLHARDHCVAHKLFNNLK
UniProt P10746: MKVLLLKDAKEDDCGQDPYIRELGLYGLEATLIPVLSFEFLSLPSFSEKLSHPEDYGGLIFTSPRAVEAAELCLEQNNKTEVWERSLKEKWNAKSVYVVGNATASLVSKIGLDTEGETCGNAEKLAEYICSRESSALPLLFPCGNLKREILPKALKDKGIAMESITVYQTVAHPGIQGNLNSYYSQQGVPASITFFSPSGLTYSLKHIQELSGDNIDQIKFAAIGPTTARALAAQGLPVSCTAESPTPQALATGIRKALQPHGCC

Row | Target | probe-labelled cysteine peptide fold change (10 µM) | probe-labelled cysteine peptide fold change (50 µM)
1 | USP24_Q9UPU5_802_TFFENVNLCDHR (UniProt Q9UPU5) | -0.00633 | -0.099
2 | USP7_Q93009_799_DLYHRVDVIFCDK (UniProt Q93009) | -0.196 | -0.115
3 | USP15_Q9Y4E8_139_LCENGNMNNVVTR (UniProt Q9Y4E8) | 0.0928 | 0.0899
4 | UNC45A_Q9H3U1_503_ALVGLCK (UniProt Q9H3U1) | 0.0324 | 0.188
5 | UNG_P13051_166_VVILGQDPYHGPNQAHGLCFSVQRPVPPPPSLENIYK (UniProt P13051) | -0.142 | -0.26
6 | UHRF1BP1_Q6BDS2_494_KPSTLLSCSR (UniProt Q6BDS2) | 0.138 | 0.0965
7 | UNC45A_Q9H3U1_34_CGDYGGALAAYTQALGLDATPQDQAVLHR (UniProt Q9H3U1) | 0.0192 | -0.224
8 | UBR5_O95071_572_VGVLMESVWNMNDSCR (UniProt O95071) | -0.102 | -0.192
9 | URB1_O60287_315_ELVHNFLMDLCCSLK (UniProt O60287) | -0.0229 | -0.0236
10 | UCHL5_Q9Y5K5_88+100_QVINNACATQAIVSVLLNCTHQDVHLGETLSEFK (UniProt Q9Y5K5) | 0.191 | 0.164
11 | USP40_Q9NVE5_798_ELADNSCLRPIDR (UniProt Q9NVE5) | 0.0166 | -0.0142
12 | UHRF2_Q96PU4_42_VWALFDVRPECQR (UniProt Q96PU4) | -0.00231 | 0.0277
13 | USP19_O94966_1138_FCIGQK (UniProt O94966) | 0.0278 | 0.0561
14 | UBR7_Q8N806_158_RPYPDPEDEIPDEMIQCVVCEDWFHGR (UniProt Q8N806) | 0.0314 | -0.0531
15 | USP19_O94966_1084_AGHFTLDQCLNLFTRPEVLAPEEAWYCPQCK (UniProt O94966) | -0.0638 | 0.151
16 | UPF2_Q9HAU5_641_LVATLHPCMSDVAEDLCSMLR (UniProt Q9HAU5) | -0.273 | -0.159
17 | USP7_Q93009_315_GTCVEGTIPK (UniProt Q93009) | -0.00682 | -0.0446
18 | USP7_Q93009_702+711_SLNYCGHIYTPISCK (UniProt Q93009) | -0.116 | -0.0186
19 | USP19_O94966_833_GLCRPENIGYPFLVSVPASR (UniProt O94966) | 0.0428 | 0.00179
20 | UNK_Q9C0B0_100_YDEATGLCPEGDECPFLHR (UniProt Q9C0B0) | 0.613 | 0.284
21 | USP6_P35125_1185_SGTSCPSSK (UniProt P35125) | -0.0146 | 0.069

Row | Target | probe-labelled cysteine peptide fold change (10 µM) | probe-labelled cysteine peptide fold change (50 µM)
22 | USP48_Q86UV5_145_DYEPQTICEHLQYLFALLQNSNRR (UniProt Q86UV5) | 0.102 | -0.124
23 | UBR7_Q8N806_46_CSYSQGSVKR (UniProt Q8N806) | -0.138 | -0.215
24 | UBR7_Q8N806_99+101_CDCGNSK (UniProt Q8N806) | -0.0898 | -0.168
25 | USP24_Q9UPU5_1556_TAECETSEADNILLAGHLR (UniProt Q9UPU5) | 0.29 | 0.0489
26 | UFC1_Q9Y3C8_69_CWYIHDLLK (UniProt Q9Y3C8) | 0.0109 | 0.124
27 | UFC1_Q9Y3C8_116_ICLTDHFKPLWAR (UniProt Q9Y3C8) | -0.522 | -0.68
28 | USP16_Q9Y5T5_509_EYCVNQK (UniProt Q9Y5T5) | -0.256 | -0.428
29 | UBTD2_Q8WUN7_122_YQLPVYCLAPPINMIEEK (UniProt Q8WUN7) | -0.0496 | -0.00366
30 | USP3_Q9Y6I4_49_SPWVCLTCSSVHCGR (UniProt Q9Y6I4) | -0.017 | -0.101
31 | UFD1_Q92890_25_CFSVSMLAGPNDRSDVEK (UniProt Q92890) | -0.255 | -0.024
32 | UQCRC1_P31930_410_NALVSHLDGTTPVCEDIGR (UniProt P31930) | 0.00661 | -0.104
33 | UGGT1_Q9NYU2_159_KTCESDTLEALLLTASERPK (UniProt Q9NYU2) | 0.0177 | -0.00925
34 | UHRF1BP1L_A0JNW5_592_SECHQDQPR (UniProt A0JNW5) | 0.265 | -0.193
35 | UQCC2_Q9BRT2_13_LCEEWPVDETK (UniProt Q9BRT2) | -0.0963 | -0.0733
36 | USP10_Q14694_456_VQRPCTSTPMIDSFVR (UniProt Q14694) | 0.067 | 0.119
37 | UBR7_Q8N806_82_QALYACSTCTPEGEEPAGICLACSYECHGSHK (UniProt Q8N806) | 0.182 | -0.386
38 | USP25_Q9UHP3_551_HITEEELSVLESCLHR (UniProt Q9UHP3) | 0.0068 | 0.00453
39 | USP19_O94966_152_VGVGPLQLEDVDAAFTDTDCVVR (UniProt O94966) | -0.0997 | 0.435
40 | USP4_Q13107_649_QPLPDEFGSSPLEPGACNGSR (UniProt Q13107) | -0.297 | -0.454
41 | USP38_Q8NB14_834_LKPSGTDEASCTK (UniProt Q8NB14) | 0.0943 | -0.0839
42 | UROD_P06132_66_SPEACCELTLQPLR (UniProt P06132) | -0.0484 | -0.048

Random excerpt: two records from the list, in no set order.
Row | Target | probe-labelled cysteine peptide fold change (10 µM) | probe-labelled cysteine peptide fold change (50 µM)
36 | USP10_Q14694_456_VQRPCTSTPMIDSFVR (UniProt Q14694) | 0.067 | 0.119
15 | USP19_O94966_1084_AGHFTLDQCLNLFTRPEVLAPEEAWYCPQCK (UniProt O94966) | -0.0638 | 0.151

Part of the list above, as tab-separated lines:
Row	Target	probe-labelled cysteine peptide fold change (10 µM)	probe-labelled cysteine peptide fold change (50 µM)
17	USP7_Q93009_315_GTCVEGTIPK (UniProt Q93009)	-0.00682	-0.0446
42	UROD_P06132_66_SPEACCELTLQPLR (UniProt P06132)	-0.0484	-0.048

Later entries.

Row | Target | probe-labelled cysteine peptide fold change (10 µM) | probe-labelled cysteine peptide fold change (50 µM)
43 | UEVLD_Q8IX04_5_MEFDCEGLR (UniProt Q8IX04) | 0.174 | 0.163
44 | UBR5_O95071_769_YCIFDLATGK (UniProt O95071) | 0.0824 | 0.178
45 | USP16_Q9Y5T5_726_HIKFPEILDLAPFCTLK (UniProt Q9Y5T5) | -0.317 | -0.472
46 | USP25_Q9UHP3_336_DLHECLEAAMIEGEIESLHSENSGK (UniProt Q9UHP3) | -0.0467 | 0.0315
47 | UQCRH_P07919_53_ERLELCDER (UniProt P07919) | -0.262 | -0.353
48 | UGDH_O60701_20+27_ICCIGAGYVGGPTCSVIAHMCPEIR (UniProt O60701) | 0.000235 | -0.197
49 | UBXN7_O94888_38_HMLEACNNNLEMAVTMFLDGGGIAEEPSTSSASVSTVRPHTEEEVR (UniProt O94888) | -0.0794 | 0.0135
50 | UFL1_O94874_641_SIEDFISCLDSAAEACDIMVK (UniProt O94874) | -0.154 | -0.0396
51 | UHRF2_Q96PU4_541_ALALNCDAPLDDK (UniProt Q96PU4) | -0.341 | 0.0116
52 | UHRF2_Q96PU4_347_CHSCSCR (UniProt Q96PU4) | 0.0469 | 0.235
53 | ULK3_Q6PHR2_186_GSPLYMAPEMVCQR (UniProt Q6PHR2) | -0.0148 | -0.194
54 | UPF2_Q9HAU5_990_LCNSLEESIR (UniProt Q9HAU5) | -0.116 | 0.04
55 | URGCP_Q8TCY9_629_EMGQFYEAESCLVEAGRLPAGQR (UniProt Q8TCY9) | -0.0582 | -0.0562
56 | UPF1_Q92900_237_CFLSWLVK (UniProt Q92900) | -0.144 | -0.0648
57 | UNC13D_Q70J99_992_DLHPLFDETFEFLVPAEPCR (UniProt Q70J99) | -0.0665 | -0.157
58 | UBR7_Q8N806_101_CDCGNSK (UniProt Q8N806) | -0.0992 | -0.0448
59 | USP48_Q86UV5_652+658_KEEEELNFNEDILCPHGELCISENERR (UniProt Q86UV5) | -0.0226 | -0.347
60 | USP34_Q70CQ2_1330_KGEGVQLPASCLPPPQK (UniProt Q70CQ2) | -0.00884 | -0.266
61 | USP40_Q9NVE5_832_MGSSLGLCLGK (UniProt Q9NVE5) | -0.0517 | -0.0256
62 | UNC45A_Q9H3U1_395_LCENYIK (UniProt Q9H3U1) | -0.0032 | 0.135
63 | UPP1_Q16831_17_AESHNDCPVR (UniProt Q16831) | -0.161 | -0.221

Row | Target | probe-labelled cysteine peptide fold change (10 µM) | probe-labelled cysteine peptide fold change (50 µM)
64 | URB1_O60287_226_EFIPCIFSSGIKEDR (UniProt O60287) | 0.157 | 0.121
65 | USP16_Q9Y5T5_205_GLSNLGNTCFFNAVMQNLSQTPVLR (UniProt Q9Y5T5) | -0.356 | -0.392
66 | UHRF1BP1L_A0JNW5_81_THPICLSLDK (UniProt A0JNW5) | -0.0635 | -0.0442
67 | UNK_Q9C0B0_272_CENGDACQYCHTR (UniProt Q9C0B0) | 0.124 | -0.131
68 | USP7_Q93009_223_NQGATCYMNSLLQTLFFTNQLR (UniProt Q93009) | -0.204 | -0.0819
69 | USP15_Q9Y4E8_633_ISTETEETEGSLHCCK (UniProt Q9Y4E8) | 0.0331 | -0.11
70 | UBXN7_O94888_478_KLSHLDYDITLQEAGLCPQETVFVQER (UniProt O94888) | -0.259 | -0.225
71 | UROS_P10746_119_IGLDTEGETCGNAEK (UniProt P10746) | 0.0467 | -0.148
72 | USP19_O94966_1169_EEQLPSYDLYAVINHYGGMIGGHYTACAR (UniProt O94966) | 0.0466 | 0.12
73 | URB1_O60287_473_TVDHCLNK (UniProt O60287) | -0.0216 | 0.35
74 | USP39_Q53GS9_105_HCPYLDTINR (UniProt Q53GS9) | -0.0864 | -0.231
75 | UNK_Q9C0B0_147_NGLHCAFAHGPHDLR (UniProt Q9C0B0) | 0.119 | 0.0621
76 | UMPS_P11172_304_CHEFLIFEDR (UniProt P11172) | 0.0477 | 0.0155
77 | UBTF_P17480_68_DFSGDMCK (UniProt P17480) | 0.00494 | 0.0183
78 | UHRF2_Q96PU4_297_IFLGGSEGTLNDCK (UniProt Q96PU4) | 0.0481 | 0.267
79 | UROS_P10746_73_AVEAAELCLEQNNK (UniProt P10746) | 0.0799 | 0.073
80 | UCHL5_Q9Y5K5_9_MTGNAGEWCLMESDPGVFTELIK (UniProt Q9Y5K5) | -0.138 | -0.157
81 | UHRF2_Q96PU4_14_TCTIEDVSR (UniProt Q96PU4) | -0.0173 | -0.103
82 | UPF3A_Q9H1J1_315_QESCAPGAVVK (UniProt Q9H1J1) | 0.021 | 0.118
83 | UCKL1_Q9NWZ5_35_SETACEDR (UniProt Q9NWZ5) | 0.063 | -0.117
84 | USP48_Q86UV5_80_GNPNCLVGIGEHIWLGEIDENSFHNIDDPNCER (UniProt Q86UV5) | -0.0286 | -0.224

Reference: the supplement of paper PMC12067093, “Discovery and optimisation of a covalent ligand for TRIM25 and its application to targeted protein ubiquitination” (Chemical Science, 2025)
